Laboratory results published in PMC13096421.
Like-named read-outs stand apart in the source and are kept apart here. Results are given in words; binding and its absence hold for the method and conditions named. Binding seen in cells or lysates may run through a third protein. A yes stands for co-enrichment or nearness to the bait. Other partners may have been found. Values belong to the molecule of their own block, whether it stands above or below them.

Chains of the proteins cited; added tags and fusions are not shown. Residues count along the entry.
UniProt P18266: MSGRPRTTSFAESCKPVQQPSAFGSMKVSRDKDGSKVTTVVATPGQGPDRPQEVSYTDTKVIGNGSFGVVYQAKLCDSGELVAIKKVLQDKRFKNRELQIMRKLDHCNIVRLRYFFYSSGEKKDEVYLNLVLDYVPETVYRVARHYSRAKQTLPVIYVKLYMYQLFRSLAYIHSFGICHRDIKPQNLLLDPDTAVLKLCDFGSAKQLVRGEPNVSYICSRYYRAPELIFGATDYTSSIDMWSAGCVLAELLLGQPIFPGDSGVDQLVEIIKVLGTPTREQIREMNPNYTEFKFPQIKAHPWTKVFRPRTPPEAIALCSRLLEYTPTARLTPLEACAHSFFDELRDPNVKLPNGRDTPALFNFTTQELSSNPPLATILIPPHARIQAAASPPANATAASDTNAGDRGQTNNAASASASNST
UniProt P31424, residues 21-1203: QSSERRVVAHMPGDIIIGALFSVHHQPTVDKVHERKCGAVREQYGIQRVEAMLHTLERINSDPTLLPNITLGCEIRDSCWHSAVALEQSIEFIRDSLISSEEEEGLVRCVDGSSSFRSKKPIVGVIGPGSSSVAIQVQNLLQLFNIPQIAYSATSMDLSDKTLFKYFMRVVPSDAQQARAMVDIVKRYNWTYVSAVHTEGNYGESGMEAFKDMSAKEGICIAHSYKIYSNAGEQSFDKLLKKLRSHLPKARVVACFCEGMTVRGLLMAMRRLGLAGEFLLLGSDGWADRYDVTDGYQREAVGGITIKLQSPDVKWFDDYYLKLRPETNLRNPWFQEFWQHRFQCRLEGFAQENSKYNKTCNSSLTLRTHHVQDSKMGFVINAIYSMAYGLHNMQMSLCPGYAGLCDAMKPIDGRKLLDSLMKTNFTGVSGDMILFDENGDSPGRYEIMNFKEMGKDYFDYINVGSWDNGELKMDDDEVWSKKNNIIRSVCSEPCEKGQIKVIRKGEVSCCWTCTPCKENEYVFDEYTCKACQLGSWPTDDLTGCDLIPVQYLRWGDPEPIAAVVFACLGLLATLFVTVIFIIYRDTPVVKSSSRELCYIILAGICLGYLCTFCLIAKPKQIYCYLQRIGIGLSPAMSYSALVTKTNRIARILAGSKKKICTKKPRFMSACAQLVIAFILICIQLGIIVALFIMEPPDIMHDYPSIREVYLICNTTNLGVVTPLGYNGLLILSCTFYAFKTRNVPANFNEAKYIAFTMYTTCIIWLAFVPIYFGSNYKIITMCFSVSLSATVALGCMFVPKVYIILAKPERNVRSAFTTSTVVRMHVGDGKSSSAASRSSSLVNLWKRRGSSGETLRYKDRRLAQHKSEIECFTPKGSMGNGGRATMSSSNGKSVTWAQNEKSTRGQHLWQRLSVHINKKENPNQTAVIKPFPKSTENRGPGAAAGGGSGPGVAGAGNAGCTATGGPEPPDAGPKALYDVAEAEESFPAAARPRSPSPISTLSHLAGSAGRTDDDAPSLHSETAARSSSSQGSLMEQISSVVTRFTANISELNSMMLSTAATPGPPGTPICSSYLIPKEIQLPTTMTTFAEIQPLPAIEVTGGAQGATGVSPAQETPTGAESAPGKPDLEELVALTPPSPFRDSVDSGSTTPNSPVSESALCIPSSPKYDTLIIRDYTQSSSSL
UniProt P62138: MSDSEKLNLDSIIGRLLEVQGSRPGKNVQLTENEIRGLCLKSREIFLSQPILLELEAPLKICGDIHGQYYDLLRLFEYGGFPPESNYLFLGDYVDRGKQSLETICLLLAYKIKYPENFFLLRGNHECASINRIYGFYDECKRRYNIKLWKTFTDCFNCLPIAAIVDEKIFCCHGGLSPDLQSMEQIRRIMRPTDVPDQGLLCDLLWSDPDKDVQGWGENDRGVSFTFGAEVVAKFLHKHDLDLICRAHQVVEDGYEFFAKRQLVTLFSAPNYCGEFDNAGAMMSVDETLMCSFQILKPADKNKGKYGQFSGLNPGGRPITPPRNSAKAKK
UniProt P63088: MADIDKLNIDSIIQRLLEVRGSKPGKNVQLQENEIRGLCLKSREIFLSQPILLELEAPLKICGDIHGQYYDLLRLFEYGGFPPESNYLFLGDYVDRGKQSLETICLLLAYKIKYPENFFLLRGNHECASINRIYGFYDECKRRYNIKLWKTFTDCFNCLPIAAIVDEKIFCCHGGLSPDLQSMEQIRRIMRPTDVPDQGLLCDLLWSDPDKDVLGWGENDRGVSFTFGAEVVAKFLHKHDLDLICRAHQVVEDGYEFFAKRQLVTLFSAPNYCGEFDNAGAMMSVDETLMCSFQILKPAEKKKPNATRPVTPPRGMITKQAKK
UniProt P17659: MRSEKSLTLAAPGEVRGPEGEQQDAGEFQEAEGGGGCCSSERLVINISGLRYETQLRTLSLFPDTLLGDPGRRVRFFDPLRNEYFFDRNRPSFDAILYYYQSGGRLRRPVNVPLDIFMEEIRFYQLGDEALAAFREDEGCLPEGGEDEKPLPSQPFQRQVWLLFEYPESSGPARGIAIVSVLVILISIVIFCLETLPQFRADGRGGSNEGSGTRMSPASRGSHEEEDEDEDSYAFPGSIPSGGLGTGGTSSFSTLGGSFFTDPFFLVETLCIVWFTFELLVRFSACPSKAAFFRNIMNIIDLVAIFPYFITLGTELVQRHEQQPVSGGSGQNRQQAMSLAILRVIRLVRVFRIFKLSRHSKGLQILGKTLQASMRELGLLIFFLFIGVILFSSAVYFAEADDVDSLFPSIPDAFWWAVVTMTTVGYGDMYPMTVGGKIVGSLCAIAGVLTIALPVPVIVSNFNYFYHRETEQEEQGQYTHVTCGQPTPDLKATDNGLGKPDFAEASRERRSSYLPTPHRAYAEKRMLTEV
UniProt Q62976: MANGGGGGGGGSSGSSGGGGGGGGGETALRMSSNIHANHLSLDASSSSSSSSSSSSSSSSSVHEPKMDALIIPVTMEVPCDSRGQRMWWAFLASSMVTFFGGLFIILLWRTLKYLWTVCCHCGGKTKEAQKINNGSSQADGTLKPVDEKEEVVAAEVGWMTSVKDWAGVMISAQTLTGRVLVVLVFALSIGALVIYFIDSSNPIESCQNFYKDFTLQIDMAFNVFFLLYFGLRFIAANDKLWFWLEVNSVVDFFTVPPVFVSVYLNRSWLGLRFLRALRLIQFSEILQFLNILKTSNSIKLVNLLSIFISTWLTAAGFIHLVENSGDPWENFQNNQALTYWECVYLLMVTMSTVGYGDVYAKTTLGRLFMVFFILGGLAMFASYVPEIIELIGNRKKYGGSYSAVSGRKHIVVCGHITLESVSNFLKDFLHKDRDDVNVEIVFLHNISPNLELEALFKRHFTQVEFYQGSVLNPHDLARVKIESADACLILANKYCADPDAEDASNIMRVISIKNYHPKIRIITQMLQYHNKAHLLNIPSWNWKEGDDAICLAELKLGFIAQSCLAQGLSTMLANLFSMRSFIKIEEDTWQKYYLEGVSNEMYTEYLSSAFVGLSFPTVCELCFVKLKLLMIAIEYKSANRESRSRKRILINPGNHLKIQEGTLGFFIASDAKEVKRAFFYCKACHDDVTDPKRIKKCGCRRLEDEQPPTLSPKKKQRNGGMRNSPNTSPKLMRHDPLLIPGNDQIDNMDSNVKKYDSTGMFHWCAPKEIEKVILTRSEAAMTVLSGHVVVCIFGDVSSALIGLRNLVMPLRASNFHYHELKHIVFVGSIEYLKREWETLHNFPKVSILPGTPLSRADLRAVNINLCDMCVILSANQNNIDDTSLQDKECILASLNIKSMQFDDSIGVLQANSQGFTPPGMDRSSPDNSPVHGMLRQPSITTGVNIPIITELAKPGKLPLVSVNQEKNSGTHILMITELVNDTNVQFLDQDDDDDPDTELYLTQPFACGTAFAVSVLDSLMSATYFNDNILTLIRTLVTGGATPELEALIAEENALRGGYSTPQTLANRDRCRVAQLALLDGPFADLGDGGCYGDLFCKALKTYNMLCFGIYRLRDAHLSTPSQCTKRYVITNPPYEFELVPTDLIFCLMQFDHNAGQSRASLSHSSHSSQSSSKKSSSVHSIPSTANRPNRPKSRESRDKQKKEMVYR
UniProt P26772: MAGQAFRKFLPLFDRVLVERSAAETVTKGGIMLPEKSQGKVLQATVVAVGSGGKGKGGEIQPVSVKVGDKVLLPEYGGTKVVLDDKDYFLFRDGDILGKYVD
UniProt P15385: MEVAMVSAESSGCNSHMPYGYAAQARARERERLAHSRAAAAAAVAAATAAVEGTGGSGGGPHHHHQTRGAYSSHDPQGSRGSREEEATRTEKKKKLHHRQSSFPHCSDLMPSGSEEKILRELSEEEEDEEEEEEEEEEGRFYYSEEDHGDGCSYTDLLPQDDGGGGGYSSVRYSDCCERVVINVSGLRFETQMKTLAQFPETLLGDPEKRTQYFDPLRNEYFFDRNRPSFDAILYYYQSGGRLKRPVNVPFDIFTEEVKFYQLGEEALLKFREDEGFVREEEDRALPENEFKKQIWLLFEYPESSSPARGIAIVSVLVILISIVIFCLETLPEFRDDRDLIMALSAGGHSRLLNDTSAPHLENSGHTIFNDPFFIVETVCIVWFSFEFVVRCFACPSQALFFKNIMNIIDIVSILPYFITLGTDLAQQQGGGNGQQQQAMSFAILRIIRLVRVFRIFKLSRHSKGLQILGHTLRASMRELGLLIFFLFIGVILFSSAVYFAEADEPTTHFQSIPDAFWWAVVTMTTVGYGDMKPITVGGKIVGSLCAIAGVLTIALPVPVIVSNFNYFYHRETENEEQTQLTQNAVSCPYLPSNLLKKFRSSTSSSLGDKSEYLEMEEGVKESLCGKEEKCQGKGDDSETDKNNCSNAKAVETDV
UniProt Q9Z214: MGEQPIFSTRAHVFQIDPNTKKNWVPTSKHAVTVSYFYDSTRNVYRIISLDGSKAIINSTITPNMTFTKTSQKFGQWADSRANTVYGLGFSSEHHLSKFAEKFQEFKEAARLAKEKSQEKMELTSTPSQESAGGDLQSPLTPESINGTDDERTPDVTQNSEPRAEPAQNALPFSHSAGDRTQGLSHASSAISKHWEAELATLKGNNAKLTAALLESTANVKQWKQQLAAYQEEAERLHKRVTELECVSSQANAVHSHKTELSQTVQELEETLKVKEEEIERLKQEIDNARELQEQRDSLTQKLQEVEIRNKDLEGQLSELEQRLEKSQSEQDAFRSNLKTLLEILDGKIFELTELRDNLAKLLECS
UniProt Q62696: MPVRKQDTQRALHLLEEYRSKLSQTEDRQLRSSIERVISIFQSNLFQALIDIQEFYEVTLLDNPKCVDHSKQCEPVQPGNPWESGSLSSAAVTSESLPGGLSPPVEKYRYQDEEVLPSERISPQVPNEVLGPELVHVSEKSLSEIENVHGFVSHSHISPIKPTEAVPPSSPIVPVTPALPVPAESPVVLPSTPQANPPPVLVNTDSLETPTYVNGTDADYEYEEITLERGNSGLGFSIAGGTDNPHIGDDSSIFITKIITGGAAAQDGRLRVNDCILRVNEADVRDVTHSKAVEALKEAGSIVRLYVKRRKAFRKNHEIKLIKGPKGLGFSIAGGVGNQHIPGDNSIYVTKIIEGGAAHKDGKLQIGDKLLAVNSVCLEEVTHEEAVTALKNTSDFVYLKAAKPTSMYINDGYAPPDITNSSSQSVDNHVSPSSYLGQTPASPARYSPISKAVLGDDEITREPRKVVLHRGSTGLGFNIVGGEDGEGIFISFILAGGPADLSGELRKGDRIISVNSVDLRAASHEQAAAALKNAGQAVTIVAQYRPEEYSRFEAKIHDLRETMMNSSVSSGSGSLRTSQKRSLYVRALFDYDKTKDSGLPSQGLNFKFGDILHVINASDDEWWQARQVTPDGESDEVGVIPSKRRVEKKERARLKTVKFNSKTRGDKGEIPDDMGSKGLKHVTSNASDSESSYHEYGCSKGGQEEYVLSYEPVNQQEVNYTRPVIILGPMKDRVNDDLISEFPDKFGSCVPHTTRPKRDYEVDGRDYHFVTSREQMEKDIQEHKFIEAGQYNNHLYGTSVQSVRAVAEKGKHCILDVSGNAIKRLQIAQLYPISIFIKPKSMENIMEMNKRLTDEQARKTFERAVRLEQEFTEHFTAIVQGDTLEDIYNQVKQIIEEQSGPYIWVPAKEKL

Experiments:
Experiment in all cases: affinity purification with mass spectrometry; endogenous baits immunoprecipitated with antibodies crosslinked to Protein A or G beads from hippocampus homogenates of rats injected with saline or PCP (1.25 mg/kg, 26 min), mixed 1:1 with 15N rat brain homogenate; 4 mM HEPES pH 7, 200 mM NaCl, 0.5% Triton, 0.5% NP-40, 0.01% sodium deoxycholate; 4 °C; normal serum controls; interactors called by SAINT at 5% FDR; SILAM quantitation of PCP against saline
[1] = target: Gsk3b (rat (endogenous in hippocampus)) (UniProt P18266)
[2] = target: Grin2b (rat (endogenous in hippocampus)) (UniProt Q00960)
[3] = target: Grm5 (rat (endogenous in hippocampus)) (UniProt P31424)
[4] = target: Ppp1ca (rat (endogenous in hippocampus)) (UniProt P62138)
[5] = target: Ppp1ca (rat (endogenous in hippocampus)) (UniProt P62138); remark: listed apart in the source
[6] = target: Gsk3b (rat (endogenous in hippocampus)) (UniProt P18266); remark: listed apart in the source
[7] = target: Grin2b (rat (endogenous in hippocampus)) (UniProt Q00960); remark: listed apart in the source
[8] = target: Grm5 (rat (endogenous in hippocampus)) (UniProt P31424); remark: listed apart in the source
[9] = target: Map2k1 (rat (endogenous in hippocampus)) (UniProt Q01986)

- binding [1]: binds
Molecule: Ppp1cc (from UniProt P63088 1-323) (enzyme)

- binding [2]: binds
Molecule: Kcna6 (from UniProt P17659 1-530)

- binding [3]: binds
Molecule: calcium-activated potassium channel subunit alpha-1 (Kcnma1), endogenous (from UniProt Q62976 1-1209)

- binding [4]: binds
Molecule: Hspe1 (from UniProt P26772 1-102)

- binding [2]: binds
Molecule: Potassium voltage-gated channel subfamily A member 4 (Kcna4) (from UniProt P15385 1-655)

- binding [5]: binds
B1: Ubxn2b (protein, UniProt P0C627 1-331)
chain: MAEGGGAEPEEQERRSSRPRPPSARDLQLALAELYEDEMKCKSSKPDRSTATAFKSPRTPPLRLYSGDQEYGGLHIAQPPTGKIVNELFKEAREHGAVPLNEATRSSSDDKAKSFTGGGYRLGSSFYKRSEYIYGENQLQDVQILLRLWSNGFSLDDGELRPYSDPTNAQFLESVKRGEIPLELQRLVHGSQVSLDMEDHQDQEYIKPRLRFKAFSGEGQKLGSLTPEIVSTPSSPEEEDKSILNAAVLIDDSVPTTKIQIRLADGSRLIQRFNSTHRILDVRDFIVQSRPEFATTDFILVTSFPSKELTDESVTLQDADILNTVILQQLK

- binding [7]: binds
B3: Kcnab2 (protein, UniProt P62483 1-367)
chain: MYPESTTGSPARLSLRQTGSPGMIYSTRYGSPKRQLQFYRNLGKSGLRVSCLGLGTWVTFGGQITDEMAEHLMTLAYDNGINLFDTAEVYAAGKAEVVLGNIIKKKGWRRSSLVITTKIFWGGKAETERGLSRKHIIEGLKASLERLQLEYVDVVFANRPDPNTPMEETVRAMTHVINQGMAMYWGTSRWSSMEIMEAYSVARQFNLIPPICEQAEYHMFQREKVEVQLPELFHKIGVGAMTWSPLACGIVSGKYDSGIPPYSRASLKGYQWLKDKILSEEGRRQQAKLKELQAIAERLGCTLPQLAIAWCLRNEGVSSVLLGASNAEQLMENIGAIQVLPKLSSSIVHEIDSILGNKPYSKKDYRS

- binding [5]: binds
B5: Ppp1r1b (aka DARPP-32) (protein, UniProt Q6J4I0 1-205)
chain: MDPKDRKKIQFSVPAPPSQLDPRQVEMIRRRRPTPALLFRVSEHSSPEEESSPHQRTSGEGHHPKSKRPNPCAYTPPSLKAVQRIAESHLQTISNLSENQASEEEDELGELRELGYPQEDDEEDEDEDEEEDEEEDSQAEVLKGSRGTAGQKLTSGQGLEGPWERPPPLDEPQRDGNSEDQGEGRATQSEPGEEPRHPTPPESGT

- binding [5]: binds
B6: Phactr3 (protein, UniProt Q6RFY2 1-517)
chain: MDQTPPARSEPLVSGIRTPPVRRNSKLATLGRIFKPWKWRKKKNEKLKQTTSALEKKMAGRQGREELIKQGLLEMMEQDSESKACSPKEGSQPAQSEPSAGEQETLTSEGVQPGSPSASGTDQASQDELLSSDAHPDDTAKMSSASSGEEADAGNLLPTTDEPSQEALSGSLDSPPRTLERSASQLPSPPLLPTPPPKASSKATKNVTGQAALFQGSSMKNNEPVLRGQLPTPTGSPHLTTVHRPLPPSRVIEELHRALATKHRQDSFQGRECRGSPKKRMDVRLSRTSSMERGKERDEAWSFDGASENKWTAAKDSEENKENLILSSELKDDLLLYQDEEALNDSIISGTLPRKCKKELLAVKLRNRPSKQELEDRNIFPRRTDEERQEIRQQIEMKLSKRLSQRPAVEELERRNILKQRNDQTEQEERREIKQRLTRKLNQRPTVDELRDRKILIRFSDYVEVARAQDYDRRADKPWTRLSAADKAAIRKELNEYKSNEMEVHASSKHLTRFHRP

The remaining lines, values behind:

Molecule: Gsk3b (from UniProt P18266 1-420) (enzyme)
- binding [4]: binds

Molecule: Homer1 (from UniProt Q9Z214 1-366)
- binding [3]: binds

Molecule: Dlg1 (from UniProt Q62696 1-911)
- binding [2]: binds

Molecule: Grin2a (from UniProt Q00959 23-1464) (receptor)
- binding [2]: binds

B2: Ppp1r2 (protein, UniProt P50411 1-205)
chain: MAASTASHRPIKGILKNKTSTTSSVVASAEQPRRTVEEELSKKSQKWDEMNILATYHPADKDYGLMKIDEPDTPYHNMIGDDEDVCSDSEGNEVMTPEILAKKLAAAEGSEPKFRTREQESSGEEDNDLSPEEREKKRQFEMKRKLHYNEGLNIKLARQLISKDLHDDDEDEEMSETADADSMNIEESNQGSTAGDHLQHKSQSS
- binding [6]: binds
- binding [5]: binds

B4: syntaxin family member Stx13 (protein, UniProt G3V7P1 1-274)
chain: MSYGPLDMYRNPGPSGPQPRDFNSIIQTCSGNIQRISQATAQIKNLMSQLGTKQDSSKLQENLQQFQHSTNQLAKETNELLKELGSLPLPLSASEQRQQKLQKERLMNDFSSALNNFQVVQRKVSEKEKESIARARAGSRLSAEDRQREEQLVSFDSHEEWNQMQSQEEEAAITEQDLELIKERETAIQQLEADILDVNQIFKDLAMMIHDQGDLIDSIEANVESSEVHVERASDQLQRAAYYQKKSRKKMCILVLVLSVIVTVLVVVIWVASK
- binding [8]: binds

B7: Syngap1 (protein, UniProt Q9QUH6 1-1308)
chain: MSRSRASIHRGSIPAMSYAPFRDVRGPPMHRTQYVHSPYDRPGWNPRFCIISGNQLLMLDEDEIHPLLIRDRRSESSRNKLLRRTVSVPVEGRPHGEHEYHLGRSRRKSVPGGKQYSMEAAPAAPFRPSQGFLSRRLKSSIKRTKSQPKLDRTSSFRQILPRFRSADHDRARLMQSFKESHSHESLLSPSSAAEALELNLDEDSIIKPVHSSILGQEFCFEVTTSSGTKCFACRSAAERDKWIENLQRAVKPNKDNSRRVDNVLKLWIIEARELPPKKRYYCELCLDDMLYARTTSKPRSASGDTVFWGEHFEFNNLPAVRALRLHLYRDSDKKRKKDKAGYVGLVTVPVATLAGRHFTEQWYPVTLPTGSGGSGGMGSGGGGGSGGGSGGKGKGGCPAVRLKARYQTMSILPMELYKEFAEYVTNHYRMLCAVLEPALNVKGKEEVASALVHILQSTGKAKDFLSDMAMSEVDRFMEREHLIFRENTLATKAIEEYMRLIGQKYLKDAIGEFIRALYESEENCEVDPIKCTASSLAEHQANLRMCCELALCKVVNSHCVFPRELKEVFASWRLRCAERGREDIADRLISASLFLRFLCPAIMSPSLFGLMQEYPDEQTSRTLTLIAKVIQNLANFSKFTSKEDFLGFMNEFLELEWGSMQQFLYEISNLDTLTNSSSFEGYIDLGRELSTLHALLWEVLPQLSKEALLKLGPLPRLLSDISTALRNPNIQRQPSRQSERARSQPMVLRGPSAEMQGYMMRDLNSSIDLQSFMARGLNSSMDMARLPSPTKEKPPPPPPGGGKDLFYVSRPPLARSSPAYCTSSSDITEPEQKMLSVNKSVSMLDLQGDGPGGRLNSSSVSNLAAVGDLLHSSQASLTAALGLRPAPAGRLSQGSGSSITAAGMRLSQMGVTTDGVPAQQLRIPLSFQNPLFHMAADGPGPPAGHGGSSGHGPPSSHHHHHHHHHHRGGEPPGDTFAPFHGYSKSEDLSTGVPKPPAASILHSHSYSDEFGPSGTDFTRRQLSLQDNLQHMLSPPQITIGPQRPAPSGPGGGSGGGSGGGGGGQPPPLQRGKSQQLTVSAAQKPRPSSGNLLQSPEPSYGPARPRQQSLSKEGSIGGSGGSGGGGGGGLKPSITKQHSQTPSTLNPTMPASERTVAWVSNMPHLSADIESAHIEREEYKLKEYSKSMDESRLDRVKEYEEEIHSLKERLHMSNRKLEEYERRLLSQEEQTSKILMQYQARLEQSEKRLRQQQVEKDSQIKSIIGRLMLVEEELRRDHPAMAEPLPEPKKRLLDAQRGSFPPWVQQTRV
- binding [9]: binds
